This assay deals with Heat Shock Protein Hsp27 (human) (UniProt P04792). Kind of assay: co-immunoprecipitation and Western blot, PC-3 cell lysate; also IP/MS of the Hsp27 interactome. In general terms: In western blotting, separated proteins are transferred to a membrane and probed.

By UniProt entry, the sequences of proteins in these tests, tags left out.
UniProt P04792: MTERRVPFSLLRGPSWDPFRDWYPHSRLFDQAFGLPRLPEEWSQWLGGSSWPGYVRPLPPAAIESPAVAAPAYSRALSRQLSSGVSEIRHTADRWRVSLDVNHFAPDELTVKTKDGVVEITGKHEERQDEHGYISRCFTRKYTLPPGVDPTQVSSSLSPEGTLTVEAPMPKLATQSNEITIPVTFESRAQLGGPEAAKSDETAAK
UniProt P17844: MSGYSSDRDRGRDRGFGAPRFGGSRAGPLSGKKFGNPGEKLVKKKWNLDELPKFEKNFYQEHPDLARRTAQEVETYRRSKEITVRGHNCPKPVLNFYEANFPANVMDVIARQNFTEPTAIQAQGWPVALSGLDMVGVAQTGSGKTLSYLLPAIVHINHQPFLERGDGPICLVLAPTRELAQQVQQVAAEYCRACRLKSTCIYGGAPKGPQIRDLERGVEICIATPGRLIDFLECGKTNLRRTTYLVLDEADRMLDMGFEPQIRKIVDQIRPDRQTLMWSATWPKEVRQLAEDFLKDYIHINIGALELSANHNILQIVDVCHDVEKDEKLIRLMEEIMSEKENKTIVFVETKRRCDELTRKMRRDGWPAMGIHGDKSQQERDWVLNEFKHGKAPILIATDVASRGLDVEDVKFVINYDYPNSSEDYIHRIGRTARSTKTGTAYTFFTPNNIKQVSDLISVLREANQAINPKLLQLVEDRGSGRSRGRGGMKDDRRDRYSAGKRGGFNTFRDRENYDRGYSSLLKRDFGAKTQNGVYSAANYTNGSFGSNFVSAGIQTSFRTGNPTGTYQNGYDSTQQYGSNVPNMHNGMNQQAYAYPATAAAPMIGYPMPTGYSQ

Results are given in words; binding and its absence hold for the method and conditions named. In cells and extracts the contact can be indirect. Some binding calls cover weakened binding; strength is not graded here.

Turning to “Probable ATP-dependent RNA helicase DDX5 (from UniProt P17844 1-614) (enzyme)”, the binding entry is on record as “binds”.

Source of the values: patent publication US20230016983A1.
